35 targets from the supplement of paper PMC10849652 can be followed below.

Sequences of proteins named here, by UniProt entry; tags and fusion partners are left off. A change or cut given only in a name is not applied to a line headed by its entry.
UniProt Q6NXT1: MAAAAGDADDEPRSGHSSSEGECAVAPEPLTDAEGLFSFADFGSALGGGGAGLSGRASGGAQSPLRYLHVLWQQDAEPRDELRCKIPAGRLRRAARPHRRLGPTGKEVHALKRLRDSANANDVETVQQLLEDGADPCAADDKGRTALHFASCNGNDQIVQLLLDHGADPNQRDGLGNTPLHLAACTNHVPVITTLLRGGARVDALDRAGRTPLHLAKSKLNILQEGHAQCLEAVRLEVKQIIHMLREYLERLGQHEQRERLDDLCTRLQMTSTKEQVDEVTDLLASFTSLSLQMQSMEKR
UniProt Q96Q83: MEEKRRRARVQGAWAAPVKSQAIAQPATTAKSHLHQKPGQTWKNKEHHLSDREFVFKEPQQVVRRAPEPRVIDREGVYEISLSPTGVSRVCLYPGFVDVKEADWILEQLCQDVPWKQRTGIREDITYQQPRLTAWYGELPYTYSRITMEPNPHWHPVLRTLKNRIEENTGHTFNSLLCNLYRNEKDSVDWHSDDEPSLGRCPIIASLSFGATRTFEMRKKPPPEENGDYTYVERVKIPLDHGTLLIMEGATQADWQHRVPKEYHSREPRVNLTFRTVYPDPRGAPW
UniProt P00352: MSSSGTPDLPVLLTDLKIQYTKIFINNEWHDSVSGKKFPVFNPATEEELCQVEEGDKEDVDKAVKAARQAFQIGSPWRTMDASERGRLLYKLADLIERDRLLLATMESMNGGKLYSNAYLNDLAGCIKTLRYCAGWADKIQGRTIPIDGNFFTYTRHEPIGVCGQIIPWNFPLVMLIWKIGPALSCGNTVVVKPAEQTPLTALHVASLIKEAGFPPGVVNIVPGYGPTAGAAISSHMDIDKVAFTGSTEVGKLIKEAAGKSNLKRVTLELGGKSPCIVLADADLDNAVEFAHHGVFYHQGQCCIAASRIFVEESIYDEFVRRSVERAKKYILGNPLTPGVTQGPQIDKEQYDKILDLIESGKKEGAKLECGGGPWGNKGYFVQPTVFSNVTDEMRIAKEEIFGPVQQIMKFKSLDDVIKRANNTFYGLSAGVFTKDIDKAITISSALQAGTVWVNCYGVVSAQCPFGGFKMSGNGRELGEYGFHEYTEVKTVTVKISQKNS
UniProt P30837: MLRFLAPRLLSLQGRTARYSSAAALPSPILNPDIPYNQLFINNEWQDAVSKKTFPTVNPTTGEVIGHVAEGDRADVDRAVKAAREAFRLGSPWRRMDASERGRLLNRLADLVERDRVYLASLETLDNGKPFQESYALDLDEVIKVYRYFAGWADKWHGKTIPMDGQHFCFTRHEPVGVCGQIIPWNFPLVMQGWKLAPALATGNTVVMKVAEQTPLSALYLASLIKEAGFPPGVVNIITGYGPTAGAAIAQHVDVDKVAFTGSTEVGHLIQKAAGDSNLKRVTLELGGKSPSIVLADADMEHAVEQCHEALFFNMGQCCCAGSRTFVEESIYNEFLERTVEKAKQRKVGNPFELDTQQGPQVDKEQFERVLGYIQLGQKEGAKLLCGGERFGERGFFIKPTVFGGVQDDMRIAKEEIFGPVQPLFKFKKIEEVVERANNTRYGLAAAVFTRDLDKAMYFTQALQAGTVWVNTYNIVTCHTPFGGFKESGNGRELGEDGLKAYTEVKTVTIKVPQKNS
UniProt Q92572: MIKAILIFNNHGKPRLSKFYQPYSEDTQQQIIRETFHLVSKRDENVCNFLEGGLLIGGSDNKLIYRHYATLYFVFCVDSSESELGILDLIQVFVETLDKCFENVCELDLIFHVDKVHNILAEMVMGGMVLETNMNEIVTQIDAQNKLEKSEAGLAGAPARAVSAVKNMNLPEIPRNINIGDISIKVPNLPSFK
UniProt P58335, whole entry, looked up: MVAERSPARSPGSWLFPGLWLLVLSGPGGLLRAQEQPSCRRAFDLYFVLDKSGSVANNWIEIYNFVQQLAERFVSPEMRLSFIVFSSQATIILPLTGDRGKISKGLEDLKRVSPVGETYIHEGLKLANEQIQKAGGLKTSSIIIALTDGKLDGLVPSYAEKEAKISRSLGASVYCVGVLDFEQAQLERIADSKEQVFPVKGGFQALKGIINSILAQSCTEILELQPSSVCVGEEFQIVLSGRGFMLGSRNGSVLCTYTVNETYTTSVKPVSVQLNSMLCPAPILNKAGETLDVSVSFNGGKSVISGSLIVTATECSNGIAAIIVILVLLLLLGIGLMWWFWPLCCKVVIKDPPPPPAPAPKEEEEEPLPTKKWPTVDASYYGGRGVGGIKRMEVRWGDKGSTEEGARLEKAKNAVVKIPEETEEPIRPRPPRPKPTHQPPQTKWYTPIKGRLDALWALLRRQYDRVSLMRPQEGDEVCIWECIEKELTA
UniProt Q9UJX5, whole entry, looked up: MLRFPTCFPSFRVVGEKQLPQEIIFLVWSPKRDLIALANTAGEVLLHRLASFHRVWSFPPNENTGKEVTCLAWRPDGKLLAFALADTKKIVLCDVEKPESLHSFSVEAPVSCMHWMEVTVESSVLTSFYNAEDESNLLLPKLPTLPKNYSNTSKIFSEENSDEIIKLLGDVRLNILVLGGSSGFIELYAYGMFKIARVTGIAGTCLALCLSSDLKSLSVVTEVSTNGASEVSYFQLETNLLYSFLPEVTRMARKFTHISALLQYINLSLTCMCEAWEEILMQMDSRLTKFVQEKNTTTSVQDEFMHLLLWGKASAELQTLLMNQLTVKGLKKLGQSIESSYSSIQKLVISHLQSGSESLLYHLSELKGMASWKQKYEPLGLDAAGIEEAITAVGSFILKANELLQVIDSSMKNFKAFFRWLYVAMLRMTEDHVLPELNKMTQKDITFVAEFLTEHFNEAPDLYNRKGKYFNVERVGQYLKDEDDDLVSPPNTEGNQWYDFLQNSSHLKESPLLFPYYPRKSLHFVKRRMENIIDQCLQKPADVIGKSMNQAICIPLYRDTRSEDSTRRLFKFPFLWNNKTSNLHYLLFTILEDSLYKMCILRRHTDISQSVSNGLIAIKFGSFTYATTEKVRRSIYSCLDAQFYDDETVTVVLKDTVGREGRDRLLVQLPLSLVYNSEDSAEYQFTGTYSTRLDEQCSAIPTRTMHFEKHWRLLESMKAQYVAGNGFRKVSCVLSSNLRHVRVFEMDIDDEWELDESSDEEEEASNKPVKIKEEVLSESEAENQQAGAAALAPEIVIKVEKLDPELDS
UniProt Q10567: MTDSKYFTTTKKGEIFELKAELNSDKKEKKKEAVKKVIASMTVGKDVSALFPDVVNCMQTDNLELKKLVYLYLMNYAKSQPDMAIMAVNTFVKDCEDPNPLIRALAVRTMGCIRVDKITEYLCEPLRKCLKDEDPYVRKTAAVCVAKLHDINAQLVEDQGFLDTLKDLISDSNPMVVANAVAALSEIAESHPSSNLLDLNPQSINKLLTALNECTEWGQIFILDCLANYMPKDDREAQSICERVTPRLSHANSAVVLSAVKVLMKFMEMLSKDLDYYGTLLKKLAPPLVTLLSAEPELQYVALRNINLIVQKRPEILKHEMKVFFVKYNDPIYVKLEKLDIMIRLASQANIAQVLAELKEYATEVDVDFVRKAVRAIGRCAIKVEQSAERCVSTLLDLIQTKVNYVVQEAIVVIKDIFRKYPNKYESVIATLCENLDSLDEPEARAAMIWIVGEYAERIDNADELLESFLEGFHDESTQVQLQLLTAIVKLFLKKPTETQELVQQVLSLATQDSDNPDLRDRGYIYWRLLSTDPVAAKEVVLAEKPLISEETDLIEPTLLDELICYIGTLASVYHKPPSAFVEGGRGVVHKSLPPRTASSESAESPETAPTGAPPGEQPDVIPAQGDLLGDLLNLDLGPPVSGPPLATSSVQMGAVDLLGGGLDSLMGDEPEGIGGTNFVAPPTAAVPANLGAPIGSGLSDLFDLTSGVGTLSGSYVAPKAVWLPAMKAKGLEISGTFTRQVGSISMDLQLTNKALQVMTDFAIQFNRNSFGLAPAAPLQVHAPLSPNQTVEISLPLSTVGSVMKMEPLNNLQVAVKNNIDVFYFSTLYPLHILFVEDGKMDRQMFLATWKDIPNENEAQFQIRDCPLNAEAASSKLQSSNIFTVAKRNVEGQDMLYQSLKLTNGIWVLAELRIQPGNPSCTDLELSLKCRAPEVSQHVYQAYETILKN
UniProt P05091: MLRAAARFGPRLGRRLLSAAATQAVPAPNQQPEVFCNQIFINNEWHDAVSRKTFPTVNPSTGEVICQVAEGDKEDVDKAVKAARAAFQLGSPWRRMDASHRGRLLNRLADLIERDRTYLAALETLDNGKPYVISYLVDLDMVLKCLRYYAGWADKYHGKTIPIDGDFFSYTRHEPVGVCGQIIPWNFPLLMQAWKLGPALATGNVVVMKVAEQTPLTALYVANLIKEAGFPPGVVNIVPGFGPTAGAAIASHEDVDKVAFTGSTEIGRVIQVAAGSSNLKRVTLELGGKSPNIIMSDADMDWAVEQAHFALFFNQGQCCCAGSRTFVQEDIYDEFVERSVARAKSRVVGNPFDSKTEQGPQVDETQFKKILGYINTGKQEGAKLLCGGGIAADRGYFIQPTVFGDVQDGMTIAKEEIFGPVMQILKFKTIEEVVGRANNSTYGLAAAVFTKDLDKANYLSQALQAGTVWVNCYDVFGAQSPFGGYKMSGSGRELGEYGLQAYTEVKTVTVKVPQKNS
UniProt Q92688: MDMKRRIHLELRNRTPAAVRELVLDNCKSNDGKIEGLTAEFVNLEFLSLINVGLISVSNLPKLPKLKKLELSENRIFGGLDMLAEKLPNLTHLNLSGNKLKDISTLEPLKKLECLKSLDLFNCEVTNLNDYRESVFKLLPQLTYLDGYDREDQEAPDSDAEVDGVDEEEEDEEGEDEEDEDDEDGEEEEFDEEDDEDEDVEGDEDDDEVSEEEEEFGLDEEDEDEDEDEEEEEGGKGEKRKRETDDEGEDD
UniProt Q3SY69: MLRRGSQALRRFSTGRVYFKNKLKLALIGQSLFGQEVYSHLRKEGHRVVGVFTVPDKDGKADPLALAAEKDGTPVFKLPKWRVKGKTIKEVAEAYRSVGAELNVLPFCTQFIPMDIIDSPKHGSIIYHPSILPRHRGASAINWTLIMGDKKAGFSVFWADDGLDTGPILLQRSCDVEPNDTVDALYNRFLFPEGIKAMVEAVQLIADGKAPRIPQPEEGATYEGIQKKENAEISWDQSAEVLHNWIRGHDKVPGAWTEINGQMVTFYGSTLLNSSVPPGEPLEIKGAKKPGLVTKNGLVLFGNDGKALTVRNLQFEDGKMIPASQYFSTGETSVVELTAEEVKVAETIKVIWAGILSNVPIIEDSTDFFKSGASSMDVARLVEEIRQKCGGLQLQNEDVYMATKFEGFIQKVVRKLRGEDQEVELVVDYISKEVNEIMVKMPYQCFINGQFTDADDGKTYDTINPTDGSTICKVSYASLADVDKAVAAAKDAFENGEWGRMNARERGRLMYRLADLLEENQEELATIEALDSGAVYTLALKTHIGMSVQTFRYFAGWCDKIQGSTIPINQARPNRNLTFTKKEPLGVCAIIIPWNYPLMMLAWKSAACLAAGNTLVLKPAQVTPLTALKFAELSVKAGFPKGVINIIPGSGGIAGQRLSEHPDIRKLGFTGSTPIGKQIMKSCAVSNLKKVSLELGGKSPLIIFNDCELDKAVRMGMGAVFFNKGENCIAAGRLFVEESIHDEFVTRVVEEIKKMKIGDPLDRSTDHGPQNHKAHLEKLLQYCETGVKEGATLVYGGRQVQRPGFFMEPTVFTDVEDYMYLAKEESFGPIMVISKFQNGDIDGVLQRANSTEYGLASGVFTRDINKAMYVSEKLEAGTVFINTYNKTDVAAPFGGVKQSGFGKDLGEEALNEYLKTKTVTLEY
UniProt O94788: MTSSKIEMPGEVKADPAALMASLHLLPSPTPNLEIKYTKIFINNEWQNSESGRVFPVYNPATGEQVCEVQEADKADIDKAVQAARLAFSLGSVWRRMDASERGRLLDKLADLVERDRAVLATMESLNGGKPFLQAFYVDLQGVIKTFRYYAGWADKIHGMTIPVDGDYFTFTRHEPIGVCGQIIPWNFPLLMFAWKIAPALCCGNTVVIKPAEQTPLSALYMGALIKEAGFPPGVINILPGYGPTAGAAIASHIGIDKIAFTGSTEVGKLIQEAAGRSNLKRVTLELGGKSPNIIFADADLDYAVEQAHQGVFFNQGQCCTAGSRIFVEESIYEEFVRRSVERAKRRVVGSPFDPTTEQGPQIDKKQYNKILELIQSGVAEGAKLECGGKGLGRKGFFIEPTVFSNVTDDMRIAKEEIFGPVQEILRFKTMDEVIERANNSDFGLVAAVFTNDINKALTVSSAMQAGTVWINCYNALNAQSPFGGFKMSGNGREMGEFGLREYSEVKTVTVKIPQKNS

This is one part of the list.

Compound in the first assay: CC(=O)c1cnc2ccc(-c3cc(Cl)c(O)c(Cl)c3)nc2c1N[C@H]1CC[C@H](CN(C)C)CC1
The assay is described as follows: log2 fold change, soluble protein after heating vs DMSO (PISA); higher = thermal stabilisation; K562 lysate, 10 uM; active = over 0.2 and 3.5 SD of the protein, either way, in both replicates (recomputed). The method in brief:
(§1)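 K562 pellets were dounce-homogenised in PBS pH 7.4 containing 1 mM MgCl2, and the crude extract, at 1 mg/mL protein, was exposed to 10 μM compound for 30 min. Aliquots were heated for 3 min across 48°C-58°C, pooled, brought to 0.5% NP-40 at 4°C and spun at 21,000xg for 90 min, with the supernatant taken as soluble protein. TMTpro 16plex LC-MS/MS with equalised channel sums quantified that protein. Values are log-two fold changes in thermal stability relative to solvent controls, taken from duplicates.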
As for ANKRD54 (UniProt Q6NXT1), the log2 fold change is inactive: -0.002.

Consider ALDH6A1 (UniProt Q02252), for which the log2 fold change was inactive: -0.006.

Consider ALKBH3 (UniProt Q96Q83), for which the log2 fold change is inactive: 0.012.

Take AMD1 (UniProt P17707): the log2 fold change is active: 0.464.

For the target ANPEP (UniProt P15144), the log2 fold change was inactive: 0.056.

Turning to ANXA11 (UniProt P50995), the log2 fold change is inactive: -0.027.

On to ALDH1A1 (UniProt P00352), for which the log2 fold change was inactive: 0.019.

Regarding ALDH1B1 (UniProt P30837), the log2 fold change is inactive: 0.086.

For the target ANK1 isoform 14 (UniProt P16157), the log2 fold change was inactive: -0.001.

On to AP3S1 (UniProt Q92572), for which the log2 fold change was inactive: 0.01.

Consider ANKRD28 (UniProt O15084), for which the log2 fold change is inactive: 0.023.

Regarding ALS2 (UniProt Q96Q42), the log2 fold change was inactive: 0.

For the target ANTXR2 isoform 4 (UniProt P58335), the log2 fold change was inactive: -0.027.

As to ANAPC4 isoform 3 (UniProt Q9UJX5), the log2 fold change is inactive: -0.019.

ALMS1 (UniProt Q8TCU4): the log2 fold change is inactive: -0.206.

Consider AKT1S1 isoform 3 (UniProt Q96B36), for which the log2 fold change is inactive: 0.004.

As to ALDH18A1 (UniProt P54886), the log2 fold change was inactive: 0.007.

As to AP2S1 (UniProt P53680), the log2 fold change is inactive: 0.034.

Consider AP3D1 isoform 5 (UniProt O14617), for which the log2 fold change is inactive: -0.012.

In the case of AP1B1 (UniProt Q10567), the log2 fold change was inactive: 0.002.

As to ALG2 (UniProt Q9H553), the log2 fold change is inactive: 0.007.

In the case of ALDH2 (UniProt P05091), the log2 fold change is inactive: 0.081.

In the case of ANP32B (UniProt Q92688), the log2 fold change was inactive: 0.

As to AP1G2 (UniProt O75843), the log2 fold change is inactive: -0.087.

As to ANGEL2 (UniProt Q5VTE6), the log2 fold change is inactive: -0.015.

Turning to ANKRD13A (UniProt Q8IZ07), the log2 fold change was inactive: 0.018.

With ALDH1L2 (UniProt Q3SY69), the log2 fold change is inactive: 0.034.

As to ALAD (UniProt P13716), the log2 fold change is inactive: 0.011.

AP3B2 isoform 4 (UniProt Q13367): the log2 fold change is inactive: -0.036.

Take ANAPC2 (UniProt Q9UJX6): the log2 fold change was inactive: 0.008.

Turning to ALDH1A2 (UniProt O94788), the log2 fold change is inactive: 0.031.

For the target ANXA3 (UniProt P12429), the log2 fold change was inactive: 0.018.

On to ANKRD27 (UniProt Q96NW4), for which the log2 fold change was inactive: -0.003.

For ANAPC10 (UniProt Q9UM13), the log2 fold change is inactive: -0.017.

Regarding ALG1 (UniProt Q9BT22), the log2 fold change was inactive: -0.093.

Compound in a further assay: CC(C)(C)Cn1c(N)nc2ccc(-c3[nH]c(C(C)(C)C)nc3-c3ccc(F)cc3)nc21 [ralimetinib]
Described as above. Put shortly: as §1
As to ANKRD54 (UniProt Q6NXT1), the log2 fold change is inactive: 0.063.

As to ALDH6A1 (UniProt Q02252), the log2 fold change is inactive: -0.064.

For ALKBH3 (UniProt Q96Q83), the log2 fold change was inactive: -0.078.

AMD1 (UniProt P17707): the log2 fold change is inactive: -0.02.

On to ANPEP (UniProt P15144), for which the log2 fold change was inactive: 0.005.

Turning to ANXA11 (UniProt P50995), the log2 fold change is inactive: -0.002.

As to ALDH1A1 (UniProt P00352), the log2 fold change is inactive: 0.037.

On to ALDH1B1 (UniProt P30837), for which the log2 fold change is inactive: 0.019.

Turning to ANK1 isoform 14 (UniProt P16157), the log2 fold change was inactive: 0.049.

As to AP3S1 (UniProt Q92572), the log2 fold change was inactive: 0.02.

With ANKRD28 (UniProt O15084), the log2 fold change was inactive: -0.01.

Regarding ALS2 (UniProt Q96Q42), the log2 fold change is inactive: -0.006.

As to ANTXR2 isoform 4 (UniProt P58335), the log2 fold change was inactive: -0.035.

In the case of ANAPC4 isoform 3 (UniProt Q9UJX5), the log2 fold change was inactive: 0.028.

On to ALMS1 (UniProt Q8TCU4), for which the log2 fold change is inactive: 0.007.

As to AKT1S1 isoform 3 (UniProt Q96B36), the log2 fold change is inactive: -0.008.

Consider ALDH18A1 (UniProt P54886), for which the log2 fold change was inactive: 0.021.

In the case of AP2S1 (UniProt P53680), the log2 fold change was inactive: 0.032.

With AP3D1 isoform 5 (UniProt O14617), the log2 fold change was inactive: 0.028.

Take AP1B1 (UniProt Q10567): the log2 fold change was inactive: 0.012.

For ALG2 (UniProt Q9H553), the log2 fold change was inactive: 0.034.

As for ALDH2 (UniProt P05091), the log2 fold change was inactive: 0.002.

ANP32B (UniProt Q92688): the log2 fold change was inactive: 0.028.

For the target AP1G2 (UniProt O75843), the log2 fold change was inactive: 0.069.

On to ANGEL2 (UniProt Q5VTE6), for which the log2 fold change is inactive: -0.016.

On to ANKRD13A (UniProt Q8IZ07), for which the log2 fold change is inactive: 0.02.

As to ALDH1L2 (UniProt Q3SY69), the log2 fold change was inactive: 0.024.

As for ALAD (UniProt P13716), the log2 fold change was inactive: -0.007.

As for AP3B2 isoform 4 (UniProt Q13367), the log2 fold change was inactive: 0.005.

In the case of ANAPC2 (UniProt Q9UJX6), the log2 fold change is inactive: 0.022.

As for ALDH1A2 (UniProt O94788), the log2 fold change was inactive: -0.009.

Consider ANXA3 (UniProt P12429), for which the log2 fold change is inactive: 0.004.

For ANKRD27 (UniProt Q96NW4), the log2 fold change is inactive: -0.028.

As for ANAPC10 (UniProt Q9UM13), the log2 fold change was inactive: 0.035.

Take ALG1 (UniProt Q9BT22): the log2 fold change was inactive: -0.011.
